Measurements reported in PubChem BioAssay AID1259308 (NCATS, 2017).
Test: 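Knock-downs that increase output of a recombinant reporter protein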 (primary screen). Cell system: human HEK293 embryonic kidney cells stably expressing firefly luciferase (HEK-CMV-Luc2-Hygro). Knock-down reagent: single siRNA against human genes, 0.8 pmol siRNA per well. Time to read-out: 72 h. Read-out: 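Reporter luminescence and viable-cell signal on separate replicate plates, given as percent of non-targeting control and median/MAD z-scores, plus per-cell luciferase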. Direction: total luciferase, z-score and total luciferase, % of control: higher = more reporter protein produced; luciferase per cell, z-score: higher = more reporter output per viable cell; viable cells, % of control: higher = more viable cells. Hit rule: 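An siRNA counts as active if its total luciferase robust z-score exceeds 3; genes with two or more such siRNAs out of three were retested with fresh siRNAs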. Calls: active = raised luciferase; inactive = no rise.
The deposit covers about 59,000 reagents; shown is an unselected part. Of all reagents, about 1,510 (2.6%) were called active. 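Calls use total luciferase alone and ignore viability, so some active siRNAs may act by altering cell number.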 Entries without a mark were called inactive. The numbers tell different reagents against one gene apart. Reagent sequences are not shown.

gene knocked down,reagent,"total luciferase, z-score","total luciferase, % of control","luciferase per cell, z-score","viable cells, % of control"
TRIM56 (tripartite motif containing 56),1,0.152,84.9,-0.0136,95.2
TRIM56 (tripartite motif containing 56),2,-0.461,72.7,-0.844,102
TRIM56 (tripartite motif containing 56),3,-1.35,55.1,-1.17,83.7
STON1-GTF2A1L (STON1-GTF2A1L readthrough),1,-0.00487,81.8,0.0985,89.1
STON1-GTF2A1L (STON1-GTF2A1L readthrough),2,-0.528,71.4,0.553,69
STON1-GTF2A1L (STON1-GTF2A1L readthrough),3,-1.14,59.2,-1.27,92.3
KDM4C (lysine demethylase 4C),1,1.32,108,0.967,93.6
KDM4C (lysine demethylase 4C),2,0.781,97.4,0.252,102
KDM4C (lysine demethylase 4C),3,-0.299,75.9,-0.692,102
"RAB25 (RAB25, member RAS oncogene family)",1,0.186,85.6,0.717,79.2
"RAB25 (RAB25, member RAS oncogene family)",2,4 (active),161,2.82,85.9
"RAB25 (RAB25, member RAS oncogene family)",3,1.67,115,0.801,104
NMD3P1 (NMD3 ribosome export adaptor pseudogene 1),1,1.11,104,0.497,102
NMD3P1 (NMD3 ribosome export adaptor pseudogene 1),2,0.0897,83.7,-0.75,114
NMD3P1 (NMD3 ribosome export adaptor pseudogene 1),3,0.573,93.3,-0.112,107
H2BC12 (H2B clustered histone 12),1,-0.57,70.5,-0.504,90
H2BC12 (H2B clustered histone 12),2,0.00397,82,-0.354,101
H2BC12 (H2B clustered histone 12),3,0.111,84.1,0.834,75.4
RGS11 (regulator of G protein signaling 11),1,-1.38,54.5,-1.4,88
RGS11 (regulator of G protein signaling 11),2,0.115,84.2,-0.251,100
RGS11 (regulator of G protein signaling 11),3,-0.0433,81,-0.482,103

Reformatted: 4 of the entries above
{"gene knocked down":"KDM4C (lysine demethylase 4C)","reagent":1,"total luciferase, z-score":1.32,"total luciferase, % of control":108,"luciferase per cell, z-score":0.967,"viable cells, % of control":93.6}
{"gene knocked down":"KDM4C (lysine demethylase 4C)","reagent":2,"total luciferase, z-score":0.781,"total luciferase, % of control":97.4,"luciferase per cell, z-score":0.252,"viable cells, % of control":102}
{"gene knocked down":"KDM4C (lysine demethylase 4C)","reagent":3,"total luciferase, z-score":-0.299,"total luciferase, % of control":75.9,"luciferase per cell, z-score":-0.692,"viable cells, % of control":102}
{"gene knocked down":"RAB25 (RAB25, member RAS oncogene family)","reagent":1,"total luciferase, z-score":0.186,"total luciferase, % of control":85.6,"luciferase per cell, z-score":0.717,"viable cells, % of control":79.2}

The list goes on.
gene knocked down,reagent,"total luciferase, z-score","total luciferase, % of control","luciferase per cell, z-score","viable cells, % of control"
EVI5L (ecotropic viral integration site 5 like),1,-0.17,78.5,-0.01,88
EVI5L (ecotropic viral integration site 5 like),2,1.83,118,1.25,95
EVI5L (ecotropic viral integration site 5 like),3,-0.162,78.7,-0.302,95.2
REST (RE1 silencing transcription factor),1,-1.07,60.5,-0.908,85.9
REST (RE1 silencing transcription factor),2,-0.396,74,-0.252,88.4
REST (RE1 silencing transcription factor),3,-0.581,70.3,-0.228,83.5
NYX (nyctalopin),1,0.527,92.4,0.511,90.2
NYX (nyctalopin),2,-0.000308,81.9,-0.84,114
NYX (nyctalopin),3,0.16,85.1,-0.308,103
MMP13 (matrix metallopeptidase 13),1,-0.323,75.5,-0.555,97.6
MMP13 (matrix metallopeptidase 13),2,0.169,85.2,0.0796,93.3
MMP13 (matrix metallopeptidase 13),3,-0.741,67.1,-0.403,83.4
DNM1P49 (dynamin 1 pseudogene 49),1,0.113,84.1,-0.284,101
DNM1P49 (dynamin 1 pseudogene 49),2,-0.401,73.9,-0.0745,84.2
DNM1P49 (dynamin 1 pseudogene 49),3,-0.0167,81.6,1.44,62.4
COL25A1 (collagen type XXV alpha 1 chain),1,0.636,94.5,0.0714,104
COL25A1 (collagen type XXV alpha 1 chain),2,0.241,86.7,0.101,94.3
COL25A1 (collagen type XXV alpha 1 chain),3,0.0758,83.4,-0.353,102
SPNS3,1,-1.98,42.5,-2.25,85.9
SPNS3,2,-0.197,78,0.483,76.7
SPNS3,3,-0.725,67.5,-0.507,86.2
INO80E (INO80 complex subunit E),1,0.201,85.9,-0.214,102
INO80E (INO80 complex subunit E),2,0.137,84.6,0.261,88.3
INO80E (INO80 complex subunit E),3,-0.0356,81.2,0.0844,88.7
EFNA2 (ephrin A2),1,0.368,89.2,0.0413,98.6
EFNA2 (ephrin A2),2,-0.675,68.5,-1.17,104
EFNA2 (ephrin A2),3,-0.618,69.6,-0.408,86.6
AADAC (arylacetamide deacetylase),1,-0.599,70,-1.08,104
AADAC (arylacetamide deacetylase),2,0.89,99.6,0.225,105
AADAC (arylacetamide deacetylase),3,0.579,93.4,0.255,97.6
LYG1 (lysozyme g1),1,-2.62,29.8,-2.57,65.7
LYG1 (lysozyme g1),2,2.95,141,2.48,81.8
LYG1 (lysozyme g1),3,1.24,107,0.811,96.2
LOC100288510,1,-0.778,66.4,0.000381,74.2
LOC100288510,2,1.11,104,0.463,103
LOC100288510,3,-0.249,76.9,-0.991,112
